Assay results published in article doi:10.1101/2025.07.20.665762.

Target: T1, Arabidopsis TRN1, full-length CDS in the pGBKT7 bait vector (Arabidopsis thaliana) (UniProt Q8H0U4)
T1 sequence: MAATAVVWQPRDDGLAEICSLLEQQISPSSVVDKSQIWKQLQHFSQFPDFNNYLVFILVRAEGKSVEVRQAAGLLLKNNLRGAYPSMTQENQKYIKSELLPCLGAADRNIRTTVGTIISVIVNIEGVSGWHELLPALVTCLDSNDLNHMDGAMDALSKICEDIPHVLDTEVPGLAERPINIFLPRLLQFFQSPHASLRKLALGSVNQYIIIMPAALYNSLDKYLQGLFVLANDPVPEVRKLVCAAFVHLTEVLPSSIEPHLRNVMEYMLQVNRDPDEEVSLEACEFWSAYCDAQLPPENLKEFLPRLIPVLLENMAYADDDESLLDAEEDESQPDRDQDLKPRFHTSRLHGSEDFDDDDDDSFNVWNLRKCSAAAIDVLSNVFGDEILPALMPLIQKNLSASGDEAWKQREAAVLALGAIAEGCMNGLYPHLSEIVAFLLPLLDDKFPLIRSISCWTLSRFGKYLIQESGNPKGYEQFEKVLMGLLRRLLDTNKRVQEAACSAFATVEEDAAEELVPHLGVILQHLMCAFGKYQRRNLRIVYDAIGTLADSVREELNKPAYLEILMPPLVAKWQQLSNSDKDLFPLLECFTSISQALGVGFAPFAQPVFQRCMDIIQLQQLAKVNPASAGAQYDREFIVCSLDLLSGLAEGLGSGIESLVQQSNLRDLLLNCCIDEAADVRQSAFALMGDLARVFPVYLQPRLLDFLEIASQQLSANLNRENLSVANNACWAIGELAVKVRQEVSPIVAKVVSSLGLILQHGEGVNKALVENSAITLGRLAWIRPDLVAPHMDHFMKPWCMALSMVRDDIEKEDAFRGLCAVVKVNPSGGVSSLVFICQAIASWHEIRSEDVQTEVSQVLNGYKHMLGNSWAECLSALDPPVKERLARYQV
Experiment: two-hybrid

Question: For “full-length PLA2-like in the pGADT7 prey vector (Arabidopsis thaliana)”, which binding is on record?
Answer: binds

Results are given in words; binding and its absence hold for the method and conditions named. A result given as binding can be weak or reduced; the word gives no strength.
